Binding data for three substances are collected here from article PMC3984710.

Chains of the proteins cited; added tags and fusions are not shown. Lines headed by an entry give the natural chain unless they say otherwise; changes in a name come on top. A line that says so, or that is headed by a name, gives the form on record, which may keep a tag or linker.
Arnt (L114A/T115D/R118G/S126A)/Flag (P27540-2, form named): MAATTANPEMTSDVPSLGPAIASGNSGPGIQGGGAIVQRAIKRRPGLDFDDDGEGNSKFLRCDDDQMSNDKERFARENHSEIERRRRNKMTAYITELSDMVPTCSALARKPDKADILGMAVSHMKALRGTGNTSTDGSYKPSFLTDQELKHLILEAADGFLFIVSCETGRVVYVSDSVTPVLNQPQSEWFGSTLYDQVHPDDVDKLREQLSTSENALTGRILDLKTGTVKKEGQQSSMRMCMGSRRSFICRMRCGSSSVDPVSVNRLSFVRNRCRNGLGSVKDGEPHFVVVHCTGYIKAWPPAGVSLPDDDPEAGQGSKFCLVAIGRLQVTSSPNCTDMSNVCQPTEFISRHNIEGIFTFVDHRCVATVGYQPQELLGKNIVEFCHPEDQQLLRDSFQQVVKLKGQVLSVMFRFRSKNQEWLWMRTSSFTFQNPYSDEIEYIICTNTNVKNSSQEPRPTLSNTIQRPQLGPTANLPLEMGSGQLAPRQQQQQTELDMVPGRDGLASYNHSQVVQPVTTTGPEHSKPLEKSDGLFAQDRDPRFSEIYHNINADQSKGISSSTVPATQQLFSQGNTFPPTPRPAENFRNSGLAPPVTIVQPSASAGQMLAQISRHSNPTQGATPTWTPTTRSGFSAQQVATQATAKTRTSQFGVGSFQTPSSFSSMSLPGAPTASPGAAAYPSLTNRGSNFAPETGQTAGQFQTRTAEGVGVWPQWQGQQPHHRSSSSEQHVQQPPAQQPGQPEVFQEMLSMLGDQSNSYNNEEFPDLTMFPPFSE
Arnt (T115D/S126A)/Flag (P27540-2, form named): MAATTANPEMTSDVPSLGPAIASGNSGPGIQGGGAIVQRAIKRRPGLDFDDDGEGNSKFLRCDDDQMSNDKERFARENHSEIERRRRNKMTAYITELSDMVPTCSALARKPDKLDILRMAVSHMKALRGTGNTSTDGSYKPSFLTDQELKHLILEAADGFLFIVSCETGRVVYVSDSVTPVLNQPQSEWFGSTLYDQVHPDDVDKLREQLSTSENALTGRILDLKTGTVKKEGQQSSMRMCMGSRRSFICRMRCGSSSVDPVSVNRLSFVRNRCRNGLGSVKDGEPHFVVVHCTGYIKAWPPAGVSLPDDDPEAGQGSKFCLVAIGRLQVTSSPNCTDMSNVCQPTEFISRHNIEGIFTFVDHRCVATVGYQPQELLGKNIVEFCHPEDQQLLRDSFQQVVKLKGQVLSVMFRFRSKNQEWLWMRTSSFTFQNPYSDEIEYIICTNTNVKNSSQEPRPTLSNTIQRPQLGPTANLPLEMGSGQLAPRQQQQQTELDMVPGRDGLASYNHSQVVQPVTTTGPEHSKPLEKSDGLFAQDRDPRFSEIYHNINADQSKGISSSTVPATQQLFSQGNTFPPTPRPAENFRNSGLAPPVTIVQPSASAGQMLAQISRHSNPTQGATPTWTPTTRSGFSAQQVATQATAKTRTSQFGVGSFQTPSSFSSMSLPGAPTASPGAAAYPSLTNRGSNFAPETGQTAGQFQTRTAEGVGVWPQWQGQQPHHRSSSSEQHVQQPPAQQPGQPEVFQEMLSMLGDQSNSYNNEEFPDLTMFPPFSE
Arnt/Flag (aryl hydrocarbon receptor nuclear translocator, wild type) (P27540-2, form named): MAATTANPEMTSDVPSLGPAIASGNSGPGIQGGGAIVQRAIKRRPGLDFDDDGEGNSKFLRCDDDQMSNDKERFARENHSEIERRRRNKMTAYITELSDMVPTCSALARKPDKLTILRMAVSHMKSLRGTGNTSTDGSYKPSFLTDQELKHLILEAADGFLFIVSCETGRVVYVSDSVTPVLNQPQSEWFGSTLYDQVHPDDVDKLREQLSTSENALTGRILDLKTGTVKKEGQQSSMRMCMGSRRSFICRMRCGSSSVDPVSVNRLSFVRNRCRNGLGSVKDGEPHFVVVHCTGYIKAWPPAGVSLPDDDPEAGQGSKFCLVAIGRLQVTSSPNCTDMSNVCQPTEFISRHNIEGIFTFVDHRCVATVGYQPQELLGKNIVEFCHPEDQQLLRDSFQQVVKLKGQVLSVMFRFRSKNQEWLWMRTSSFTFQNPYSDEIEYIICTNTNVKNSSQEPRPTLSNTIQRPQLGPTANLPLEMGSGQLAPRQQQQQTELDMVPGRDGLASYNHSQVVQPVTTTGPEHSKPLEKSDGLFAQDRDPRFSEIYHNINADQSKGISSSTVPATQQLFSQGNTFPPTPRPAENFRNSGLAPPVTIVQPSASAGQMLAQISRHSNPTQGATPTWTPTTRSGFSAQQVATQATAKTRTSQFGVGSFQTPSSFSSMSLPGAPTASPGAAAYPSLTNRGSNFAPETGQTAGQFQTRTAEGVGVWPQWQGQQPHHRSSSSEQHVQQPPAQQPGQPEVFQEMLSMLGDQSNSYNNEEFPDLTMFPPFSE

These are yes or no findings as the source states them, for the method shown. Binding seen in cells or lysates may run through a third protein. Some entries that bind do so weakly or less than the wild type. Where a sequence is shown, tags or fusion partners need not be part of it.

For this experiment, the target named is T1, Miz-1/GFP (Myc-interacting zinc finger protein 1) (UniProt Q13105).
T1 sequence: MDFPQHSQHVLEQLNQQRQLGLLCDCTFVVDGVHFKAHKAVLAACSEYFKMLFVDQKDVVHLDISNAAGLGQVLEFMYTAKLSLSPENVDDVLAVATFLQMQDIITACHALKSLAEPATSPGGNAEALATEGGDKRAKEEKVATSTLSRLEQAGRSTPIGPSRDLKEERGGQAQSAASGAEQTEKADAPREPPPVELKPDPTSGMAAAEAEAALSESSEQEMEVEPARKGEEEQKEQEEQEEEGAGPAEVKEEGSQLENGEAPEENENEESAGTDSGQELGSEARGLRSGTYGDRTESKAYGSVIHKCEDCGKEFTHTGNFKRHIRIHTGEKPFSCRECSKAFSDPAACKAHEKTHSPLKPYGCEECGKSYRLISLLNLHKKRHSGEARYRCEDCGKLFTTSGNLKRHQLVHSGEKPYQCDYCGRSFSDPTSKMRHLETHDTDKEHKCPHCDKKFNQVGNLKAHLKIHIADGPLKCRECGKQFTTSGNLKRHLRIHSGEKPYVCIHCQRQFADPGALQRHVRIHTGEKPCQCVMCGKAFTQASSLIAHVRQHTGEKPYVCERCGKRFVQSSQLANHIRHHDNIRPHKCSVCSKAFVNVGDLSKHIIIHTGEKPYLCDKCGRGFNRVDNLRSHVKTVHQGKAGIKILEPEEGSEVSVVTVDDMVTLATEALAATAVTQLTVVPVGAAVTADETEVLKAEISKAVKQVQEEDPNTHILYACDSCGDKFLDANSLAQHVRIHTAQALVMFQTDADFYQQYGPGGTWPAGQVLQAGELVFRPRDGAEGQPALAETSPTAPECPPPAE
As to the kind of experiment: co-IP; Cos-1 cells co-transfected with Miz-1/GFP and Arnt/Flag variants; whole cell extract (25 mM Hepes, 100 mM NaCl, 5 mM EDTA, 0.5% Triton, 20% glycerol); IP with anti-GFP on Protein G agarose overnight at 4°C, immunoblot with anti-Flag. On the technique in general: In western blotting, separated proteins are transferred to a membrane and probed.
Regarding “Arnt (L114A/T115D/R118G/S126A)/Flag (from UniProt P27540-2 1-774)”, the binding result is listed as “no binding”. For “Arnt (T115D/S126A)/Flag (from UniProt P27540-2 1-774)” the value was “binds weakly”; for “Arnt/Flag (aryl hydrocarbon receptor nuclear translocator, wild type) (from UniProt P27540-2 1-774)”, “binds”.
